Source: the supplement of paper PMC3334620
Whole data set: some 33,000 sequences, median “E-score (-0.5 to 0.5)” near -0.015, cut for the highest 2% near 0.3. The list shows a part of the results.

Target: T1, Abf1 (UniProt P14164)
T1 sequence: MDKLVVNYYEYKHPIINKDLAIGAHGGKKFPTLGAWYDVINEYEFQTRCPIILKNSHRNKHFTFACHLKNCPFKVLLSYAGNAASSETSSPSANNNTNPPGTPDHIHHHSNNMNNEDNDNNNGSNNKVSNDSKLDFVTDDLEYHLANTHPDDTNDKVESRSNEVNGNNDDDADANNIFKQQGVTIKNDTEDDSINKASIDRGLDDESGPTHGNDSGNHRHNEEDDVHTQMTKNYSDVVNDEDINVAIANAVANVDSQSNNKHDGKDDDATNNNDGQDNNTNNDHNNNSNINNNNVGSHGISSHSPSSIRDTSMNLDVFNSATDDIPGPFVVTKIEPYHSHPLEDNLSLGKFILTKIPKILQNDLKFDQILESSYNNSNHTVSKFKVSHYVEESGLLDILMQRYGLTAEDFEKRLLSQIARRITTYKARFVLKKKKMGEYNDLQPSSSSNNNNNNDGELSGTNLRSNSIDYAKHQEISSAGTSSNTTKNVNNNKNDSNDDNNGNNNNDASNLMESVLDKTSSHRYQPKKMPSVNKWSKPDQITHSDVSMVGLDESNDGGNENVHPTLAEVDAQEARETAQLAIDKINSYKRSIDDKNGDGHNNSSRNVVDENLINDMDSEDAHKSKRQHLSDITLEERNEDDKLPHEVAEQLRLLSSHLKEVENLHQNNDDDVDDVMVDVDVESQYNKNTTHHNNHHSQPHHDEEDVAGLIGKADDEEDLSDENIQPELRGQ
Assay: PBM E-score (8-mer binding enrichment) (E-score (-0.5 to 0.5)); higher = stronger / more preferred TF binding
Details: protein concentration: 200 nM; construct: GST-full length
Method: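 Universal 'all 10-mer' protein binding microarrays (Agilent AMADID 015681) probed with GST-tagged S. cerevisiae TFs (full-length or DBD) made by in vitro transcription/translation (PURExpress), about 100-200 nM. Bound TF was detected with fluorescent anti-GST. Each ungapped 8-mer (which stands for itself and its reverse complement) is scored by the PBM enrichment score (E-score), a modified Wilcoxon-Mann-Whitney statistic from -0.5 to +0.5, computed with the Universal PBM Analysis Suite. Scale: above 0.35 generally sequence-specific binding.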

Sequence | PBM E-score
CCCTCGGC | -0.192
GTGTCTAA | 0.111
ACGACTTG | 0.219
AAAGTCCT | -0.161
ACGCAAAG | 0.0496
AACGTGGA | 0.0105
CGACGATA | 0.373
AAATGCAA | -0.0101
AGACGAAG | 0.135
GTCCTATA | -0.0768
CATGAAGA | 0.132
AAGGGAGT | -0.126
ATAAGACA | 0.126
TGGGAACA | 0.0263
CAACTTCA | -0.112
AAAGGGCA | 0.00013
AGTTCTGA | -0.0393
CGCGTATC | 0.0488
ATTCCGGG | -0.095
AGGTAATC | -0.0547
AGCCCACG | 0.0424
ACAACAGC | -0.0578
CTGCTTAC | -0.198
ACGAGTCG | 0.165
CGAAGGAG | 0.0413

Sequence | PBM E-score
CGTAACAA | 0.248
ATAAACTA | 0.162
TTGACCAA | -0.049
ACAACCTA | -0.0161
ACATGGCC | -0.0287
ACAACCGT | -0.0373
ACGTCCGC | 0.127
ACTCGAAA | 0.124
TACATCTA | -0.0572
GAGAGACC | -0.131
CGCTTTAA | 0.0203
AATGTCAC | 0.416
GTCTCTGA | 0.194
ACATAGCT | -0.211
ATTCTGTC | -0.116
CCCGGTCA | -0.0268
GCACATGA | -0.107
AGAAAACC | -0.127
GGAATACC | -0.0774
GCTATTAA | 0.034
GTTGTCAA | 0.0388
ATATTGAC | -0.122
AAGCCCCT | -0.196
ACCATTAG | -0.125
GTAATACA | 0.152

Sequence | PBM E-score
TCACTTAA | 0.219
ACTACGGC | 0.102
CGACGTTA | 0.238
ACTTGACA | -0.0769
CTCTTTAC | -0.0883
CAAGCGGC | 0.0225
GACGCGGC | 0.0089
ACCACCCA | 0.0341
ATGCTCCG | -0.094
AGACTTAC | -0.19
AATTTGGT | 0.0854
AAGAGTGC | -0.156
ACAAGTAT | 0.0682
TCCCGAAA | 0.0516
AGTGGTAT | 0.0315
AATCGCCA | 0.00273
TCAAGGAA | 0.0823
AATGTTTC | -0.17
ACACAACA | 0.0864
ACAGGTAA | -0.00331
AATGGATG | 0.0613
GTTCTGGA | -0.00129
ATCACCCG | 0.293
CGATTGGC | -0.0866
GATATAAC | 0.307

Sequence | PBM E-score
GTGGGGGA | -0.276
CTTCCCAA | -0.0429
ATTATTTG | 0.154
ACCTTTCG | 0.072
CTCCAGCC | -0.0707
CTCGTCCC | 0.194
TACGAGTA | 0.257
GAGGCTGA | -0.235
ATATCTCA | 0.173
GGCGAGTA | -0.121
GCCTAAGA | -0.0403
GAGTCCGA | -0.00238
GTGACTAA | 0.327
ACCCACGA | 0.287
ATCCTTAA | 0.0133
GGAGTCTA | -0.154
TCTCCTCA | -0.0245
AAGTAAGC | 0.046
CCGAGGTC | -0.0891
CGCTAGGA | -0.142
CGCATACG | 0.0412
CCTTAAGG | -0.0777
GGGTTGAA | -0.0879
ATCAGTCC | -0.133
ACCTGCGT | -0.045

Look-ups from the list:
PBM E-score, GAGGCTGA is entered as -0.235
PBM E-score, GCCTAAGA is entered as -0.0403
PBM E-score, CTCCAGCC is entered as -0.0707
PBM E-score, GAGTCCGA is entered as -0.00238

Next records.

Sequence | PBM E-score
GTGGCCAA | -0.0965
GGCCTTTA | -0.171
GATGGGGA | -0.241
GAAGTAGC | -0.0902
AACCACAT | 0.182
AAGGGACG | -0.136
TAAAGGCA | 0.11
ACAAAAGT | 0.0193
CAAAGCCG | 0.0762
GGGAATCA | -0.035
ACAAAATC | 0.129
ACTTGATG | 0.0621
CGAGTAGA | -0.0934
CGGAGAAA | -0.0647
CAGCAGAC | -0.0427
CCAGGTAC | 6e-05
AACCTGCC | -0.14
GCACATAA | 0.0832
CAGCGCCG | -0.238
CCCCTTCG | -0.222
AACTAATA | 0.306
CCAGGTAA | -0.0599
ACGTATCA | 0.33
CCGTGTCC | 0.00491
GTTGGCAA | 0.0422

Sequence | PBM E-score
AAGGTTCG | 0.0153
AGATCAAG | 0.112
TAGAGTAA | 0.0455
CAAAGTCC | -0.141
GCCTAACC | -0.163
TATGTGAA | 0.118
CTTATGTC | 0.00318
TAGGTTAA | 0.027
CAACCGCC | -0.00665
CGGTTCCC | -0.161
CTCCAGAC | -0.186
GGGACAAA | 0.0674
TCCGTTAA | 0.0849
CCGAGACA | -0.0957
CCGTATAC | 0.272
ATCCGGTG | -0.0713
CATGGCCC | -0.187
AAGCGCTT | 0.193
ACTATTCA | 0.187
CTATAGCC | -0.181
CGGTGCAC | -0.0411
CACGATCC | 0.0482
CCGAAGGA | -0.29
CGGCACTC | -0.0551
ATTCAGAA | 0.142

Random excerpt: 3 records from the list
Sequence | PBM E-score
AAGCGCTT | 0.193
ATTCAGAA | 0.142
ATCCGGTG | -0.0713

The list goes on:

Sequence | PBM E-score
AGAGCTAC | -0.0107
CTAATTAG | 0.162
AGGGGCCC | -0.185
GCACAAGC | -0.284
ATGTAAAT | 0.196
AAATGATA | 0.409
TGATAGCA | 0.243
CTGTCCGC | -0.129
AGCGGATG | -0.055
ATACACGG | 0.202
GACAACCC | 0.0319
GACTTTCA | 0.0556
ACGATCGT | 0.319
AGAACCAC | -0.18
GTGTGTAA | -0.0186
AAGGCCAT | 0.0255
CTGCGCAC | 0.171
CCTCTTGA | -0.0854
GGCCTGTA | -0.323
GTGGGGAA | -0.0299
GCGAAACA | -0.0459
ACCATTGC | -0.119
